{"source": "the supplement of paper PMC8732350", "note": "“And” between values parts separate entries of the source, which are not always exact repeats. Equal entries are not always repeated. Structures can show the parent of a compound that is named as a salt. ± gives the standard deviation of the averaged measurements. Some of the results follow. Repeats in this data set agree poorly, so a single value says little."}
{"test_system": "A549", "experiment": "surface PD-L1 immunofluorescence intensity relative to IFN-gamma-only control (ratio); higher = more PD-L1 expression", "conditions": "10 µM; exposure time 24 h; IFN-gamma 100 ng/mL"}
{"smiles": "CC1(C)O[C@@H]2C[C@H]3[C@@H]4CCC5=CC(=O)CC[C@]5(C)[C@@]4(F)[C@@H](O)C[C@]3(C)[C@]2(C(=O)CCl)O1", "note": "[Halcinonide]", "surface PD-L1 immunofluorescence intensity": 0.799}
{"smiles": "CCN(CC)C(=O)/C(C#N)=C/c1cc(O)c(O)c([N+](=O)[O-])c1", "note": "[Entacapone]", "surface PD-L1 immunofluorescence intensity": 0.954}
{"smiles": "C[C@@H]1O[C@@H](OC[C@H]2O[C@@H](Oc3c(-c4ccc(OCCO)c(OCCO)c4)oc4cc(OCCO)cc(O)c4c3=O)[C@H](O)[C@@H](O)[C@@H]2O)[C@H](O)[C@H](O)[C@H]1O", "note": "[Troxerutin]", "surface PD-L1 immunofluorescence intensity": 1.06}
{"smiles": "CCOC(=O)C1=C(C)NC(C)=C(C(=O)OCC)C1c1ccccc1/C=C/C(=O)OC(C)(C)C", "note": "[Lacidipine]", "surface PD-L1 immunofluorescence intensity": 0.902}
{"smiles": "O=C(O)C(Cc1c[nH]c2ccccc12)N1C(=O)c2ccccc2C1=O", "note": "(stereo not drawn)", "surface PD-L1 immunofluorescence intensity": 1.01}
{"smiles": "CCOc1cc(CC(=O)N[C@@H](CC(C)C)c2ccccc2N2CCCCC2)ccc1C(=O)O", "note": "[Repaglinide]", "surface PD-L1 immunofluorescence intensity": "0.996 ± 0.012"}
{"smiles": "CCCCN(CCCC)CCC(O)c1cc2c(Cl)cc(Cl)cc2c2cc(C(F)(F)F)ccc12", "note": "(stereo not drawn) [Halofantrine hydrochloride]", "surface PD-L1 immunofluorescence intensity": 1.09}
{"smiles": "C#C[C@]1(O)CC[C@H]2[C@@H]3CCc4cc(O)ccc4[C@H]3CC[C@@]21C", "note": "[Ethinyl Estradiol]", "surface PD-L1 immunofluorescence intensity": 1.2}
{"smiles": "C#C[C@]1(O)CC[C@H]2[C@@H]3CCc4cc(O)ccc4[C@H]3CC[C@@]21C", "note": "[Ethinylestradiol]", "surface PD-L1 immunofluorescence intensity": 1.12}
{"smiles": "C[C@H](NC[C@H](O)CP(=O)(O)CC1CCCCC1)c1ccc(Cl)c(Cl)c1", "surface PD-L1 immunofluorescence intensity": 0.995}
{"smiles": "Nc1nc2c(ncn2COCCO)c(=O)[nH]1", "note": "[Acyclovir]", "surface PD-L1 immunofluorescence intensity": 0.884}
{"smiles": "CCCCCN(CCCCC)C(=O)C(CCC(=O)O)NC(=O)c1ccc(Cl)c(Cl)c1", "note": "(stereo not drawn) [Lorglumide sodium salt]", "surface PD-L1 immunofluorescence intensity": 0.993}
{"smiles": "CC(C)NCC(O)c1ccc(O)c(O)c1", "note": "(stereo not drawn) [Isoproterenol hydrochloride]", "surface PD-L1 immunofluorescence intensity": 1.01}
{"smiles": "CS(=O)(=O)N1CCN(Cc2cc3nc(-c4cccc5[nH]ncc45)nc(N4CCOCC4)c3s2)CC1", "note": "[Pictilisib (GDC-0941)]", "surface PD-L1 immunofluorescence intensity": 0.939}
{"smiles": "CC(C)(C)NC(=O)[C@@H]1C[C@@H]2CCCC[C@@H]2CN1C[C@@H](O)[C@H](Cc1ccccc1)NC(=O)[C@H](CC(N)=O)NC(=O)c1ccc2ccccc2n1", "note": "[Saquinavir mesylate]", "surface PD-L1 immunofluorescence intensity": 1.01}
{"smiles": "COc1ccc2[nH]c([S@@+]([O-])Cc3ncc(C)c(OC)c3C)nc2c1", "note": "[Esomeprazole magnesium (Nexium)]", "surface PD-L1 immunofluorescence intensity": 1.07}
{"smiles": "c1ccc(C(O[C@@H]2CCCN(CCc3ccc4c(c3)OCO4)C2)c2ccccc2)cc1", "note": "[Zamifenacin fumarate]", "surface PD-L1 immunofluorescence intensity": 1.11}
{"smiles": "CC(=O)OCC(=O)[C@@]1(O)[C@H](C)C[C@H]2[C@@H]3CCC4=CC(=O)C=C[C@]4(C)[C@@]3(F)[C@@H](O)C[C@@]21C", "note": "[Dexamethasone acetate]", "surface PD-L1 immunofluorescence intensity": "0.766 ± 0.033"}
{"smiles": "COc1ncnc(NS(=O)(=O)c2ccc(N)cc2)c1OC", "note": "[Sulfadoxine]", "surface PD-L1 immunofluorescence intensity": 0.968}
{"smiles": "CC1(C)CCC[C@]2(C)[C@H]3CC(=O)O[C@]3(C)CC[C@@H]12", "note": "[Sclareolide (Norambreinolide)]", "surface PD-L1 immunofluorescence intensity": 0.918}
{"smiles": "COc1c(N2C[C@@H]3CCCN[C@@H]3C2)c(F)cc2c(=O)c(C(=O)O)cn(C3CC3)c12", "note": "[Moxifloxacin]", "surface PD-L1 immunofluorescence intensity": 1.09}
{"smiles": "COc1ccc(C(=O)c2ccccc2)c(O)c1", "note": "[Oxybenzone]", "surface PD-L1 immunofluorescence intensity": 1.08}
{"smiles": "Cc1ccccc1C(=O)c1ccc(Nc2ccc(Br)cc2N)cc1Cl", "surface PD-L1 immunofluorescence intensity": 0.984}
{"smiles": "COc1ccc(C(=O)CC(=O)c2ccc(C(C)(C)C)cc2)cc1", "note": "[Avobenzone (Parsol 1789)]", "surface PD-L1 immunofluorescence intensity": 1.11}
{"smiles": "COc1cc(C(C)=O)ccc1OCCCN1CCC(c2noc3cc(F)ccc23)CC1", "note": "[Iloperidone (Fanapt)]", "surface PD-L1 immunofluorescence intensity": 1.05}
{"smiles": "CCOC(=O)[C@H](CCc1ccccc1)N[C@H]1CCCN2CCC[C@@H](C(=O)O)N2C1=O", "note": "[Cilazapril monohydrate (Inhibace)]", "surface PD-L1 immunofluorescence intensity": 1.13}
{"smiles": "CCCC1O[C@@H]2C[C@H]3[C@@H]4CCC5=CC(=O)C=C[C@]5(C)[C@H]4[C@@H](O)C[C@]3(C)[C@]2(C(=O)CO)O1", "note": "(stereo partly drawn) [Budesonide]", "surface PD-L1 immunofluorescence intensity": "0.888 ± 0.017"}
{"smiles": "COC(=O)c1c(C)[nH]c(C)c1C(=O)c1ccccc1Cc1ccccc1", "surface PD-L1 immunofluorescence intensity": "1 and 0.981"}
{"smiles": "CC(C)n1nnc2cc(C(=O)O)ccc21", "surface PD-L1 immunofluorescence intensity": 1.08}
{"smiles": "CC(C(=O)O)c1cccc(C(=O)c2ccccc2)c1", "note": "(stereo not drawn) [Ketoprofen]", "surface PD-L1 immunofluorescence intensity": 0.99}
{"smiles": "CC(C1=C(CCN(C)C)Cc2ccccc21)c1ccccn1", "note": "(stereo in doubt) [(S)-(+)-Dimethindene maleate]", "surface PD-L1 immunofluorescence intensity": 0.982}
{"smiles": "CC1=C(C(=O)Nc2cc3cn[nH]c3cc2F)C(c2ccc(C(F)(F)F)cc2)CC(=O)N1", "note": "(stereo not drawn)", "surface PD-L1 immunofluorescence intensity": "0.986 ± 0.12"}
{"smiles": "NCC(O)(CS(=O)(=O)O)c1ccc(Cl)cc1", "note": "(stereo not drawn) [2-Hydroxysaclofen]", "surface PD-L1 immunofluorescence intensity": 1.04}
{"smiles": "CC[C@H](NC(=O)c1c(C)c(-c2ccccc2)nc2ccccc12)c1ccccc1", "surface PD-L1 immunofluorescence intensity": 1.01}
{"smiles": "CCOC(=O)c1ncn2c1CN(C)C(=O)c1cc(F)ccc1-2", "note": "[Flumazenil]", "surface PD-L1 immunofluorescence intensity": 1.03}
{"smiles": "Cc1cc(C)c2c(c1)[C@@H](N(Cc1cc(C(F)(F)F)cc(C(F)(F)F)c1)c1nnn(C)n1)CCCN2C[C@H]1CC[C@H](C(=O)O)CC1", "surface PD-L1 immunofluorescence intensity": 0.977}
{"smiles": "CC1=C(/C=C/C(C)=C/C=C/C(C)=C/C=C/C=C(C)/C=C/C=C(C)/C=C/C2=C(C)C(=O)CCC2(C)C)C(C)(C)CCC1=O", "note": "[Canthaxanthin]", "surface PD-L1 immunofluorescence intensity": 0.918}
{"smiles": "C[C@H](N)[C@H](O)c1cccc(O)c1", "note": "[Metaraminol bitartrate]", "surface PD-L1 immunofluorescence intensity": 0.909}
{"smiles": "NC(=O)N1C(=O)/C(=C(\\O)c2cccs2)c2cc(Cl)ccc21", "note": "[Tenidap]", "surface PD-L1 immunofluorescence intensity": 1.14}
{"smiles": "CCN(CC)CCOC(=O)C(Cc1cccc2ccccc12)CC1CCCO1", "note": "(stereo not drawn) [Nafronyl oxalate]", "surface PD-L1 immunofluorescence intensity": 0.928}
{"smiles": "CC1(C)S[C@@H]2[C@H](NC(=O)C(C(=O)O)c3ccccc3)C(=O)N2[C@H]1C(=O)O", "note": "(stereo partly drawn) [Carbenicillin disodium]", "surface PD-L1 immunofluorescence intensity": 0.897}
{"smiles": "CC(C)=CCC/C(C)=C/CC/C(C)=C/CO", "note": "[Farnesol]", "surface PD-L1 immunofluorescence intensity": 1.01}
{"smiles": "Cc1nc2sccn2c(=O)c1CCN1CCC(=C(c2ccccc2)c2ccc(F)cc2)CC1", "surface PD-L1 immunofluorescence intensity": 0.995}
{"smiles": "Cc1ccccc1OCC(O)CO", "note": "(stereo not drawn) [Mephenesin]", "surface PD-L1 immunofluorescence intensity": 1}
{"smiles": "S=c1ccss1", "note": "[1,2-Dithiole-3-thione]", "surface PD-L1 immunofluorescence intensity": 0.988}
{"smiles": "CS(=O)(=O)c1ccc(-c2cc(Br)sc2-c2ccc(F)cc2)cc1", "surface PD-L1 immunofluorescence intensity": 1.09}
{"smiles": "O=C1CN(/N=C/c2ccc([N+](=O)[O-])o2)C(=O)N1", "note": "[Nitrofurantoin]", "surface PD-L1 immunofluorescence intensity": 0.903}
{"smiles": "CC1(C)S[C@@H]2[C@H](NC(=O)[C@H](C(=O)O)c3ccsc3)C(=O)N2[C@H]1C(=O)O", "note": "[Ticarcillin sodium]", "surface PD-L1 immunofluorescence intensity": 1.03}
{"smiles": "CN[C@@H]1[C@@H](O)[C@@H](O[C@@H]2[C@@H](O)[C@H](O[C@H]3OC(CN)=CC[C@H]3N)[C@@H](N)C[C@H]2N)OC[C@]1(C)O", "note": "[Sisomicin sulfate]", "surface PD-L1 immunofluorescence intensity": 1.04}
{"smiles": "Cc1cc(NS(=O)(=O)c2ccc(N)cc2)no1", "note": "[Sulfamethoxazole]", "surface PD-L1 immunofluorescence intensity": 1.01}
{"smiles": "O=C1CN(/N=C/c2ccc(-c3ccc([N+](=O)[O-])cc3)o2)C(=O)N1", "note": "[Dantrolene sodium salt]", "surface PD-L1 immunofluorescence intensity": 0.971}
{"smiles": "O=C1CN(/N=C/c2ccc(-c3ccc([N+](=O)[O-])cc3)o2)C(=O)N1", "note": "[Dantrolene, sodium salt]", "surface PD-L1 immunofluorescence intensity": 1.04}
{"smiles": "O=C1CN(/N=C/c2ccc(-c3ccc([N+](=O)[O-])cc3)o2)C(=O)N1", "note": "[Dantrolene]", "surface PD-L1 immunofluorescence intensity": 0.998}
{"smiles": "COc1cc(O)c2c(c1)C(=O)c1cc(C)cc(O)c1C2=O", "note": "[Rheochrysidin (Physcione)]", "surface PD-L1 immunofluorescence intensity": 1.15}
{"smiles": "CCOC(=O)n1ccn(C)c1=S", "note": "[Carbimazole]", "surface PD-L1 immunofluorescence intensity": 0.976}
{"smiles": "CC1(C)O[C@@H]2C[C@H]3[C@@H]4CCC5=CC(=O)C=C[C@]5(C)[C@H]4[C@@H](O)C[C@]3(C)[C@]2(C(=O)CO)O1", "note": "[Desonide]", "surface PD-L1 immunofluorescence intensity": 0.82}
{"smiles": "NCCCCCNCC12CC3CC(CC(C3)C1)C2", "note": "[IEM 1754 dihydrobroMide]", "surface PD-L1 immunofluorescence intensity": 1.04}
{"smiles": "CC[C@H]1OC(=O)C[C@@H](O)[C@H](C)[C@@H](O[C@@H]2O[C@H](C)[C@@H](O[C@H]3C[C@@](C)(O)[C@@H](O)[C@H](C)O3)[C@H](N(C)C)[C@H]2O)[C@@H](CC=O)C[C@@H](C)C(=O)/C=C/C(C)=C/[C@@H]1CO[C@@H]1O[C@H](C)[C@@H](O)[C@@H](OC)[C@H]1OC", "note": "[Tylosin]", "surface PD-L1 immunofluorescence intensity": 1.02}
{"smiles": "CC[C@H]1OC(=O)C[C@@H](O)[C@H](C)[C@@H](O[C@@H]2O[C@H](C)[C@@H](O[C@H]3C[C@@](C)(O)[C@@H](O)[C@H](C)O3)[C@H](N(C)C)[C@H]2O)[C@@H](CC=O)C[C@@H](C)C(=O)/C=C/C(C)=C/[C@@H]1CO[C@@H]1O[C@H](C)[C@@H](O)[C@@H](OC)[C@H]1OC", "note": "[Tylosin tartrate]", "surface PD-L1 immunofluorescence intensity": 0.92}
{"smiles": "O=C(/C=C/c1ccc(O)c(O)c1)c1ccc(O)cc1O", "note": "[Butein]", "surface PD-L1 immunofluorescence intensity": "0.978 ± 0.043"}
{"smiles": "CCNC(=O)CCC/C=C\\C[C@@H]1[C@@H](/C=C/[C@@H](O)CCc2ccccc2)[C@H](O)C[C@@H]1O", "note": "[Bimatoprost]", "surface PD-L1 immunofluorescence intensity": 1.09}
{"smiles": "Cc1ccc(NC(=O)c2cccc(N(C)C)c2)cc1NC(=O)c1ccc(O)cc1", "surface PD-L1 immunofluorescence intensity": 1.23}
{"smiles": "C[C@]12C[C@H](O)[C@H]3[C@@H](CCC4=CC(=O)CC[C@@]43C)[C@@H]1CC[C@@H]2C(=O)CO", "note": "[Corticosterone]", "surface PD-L1 immunofluorescence intensity": 0.909}
{"smiles": "Nc1c2c(nc3ccccc13)CCCC2", "note": "[Tacrine hydrochloride]", "surface PD-L1 immunofluorescence intensity": "1.09 ± 0.065"}
{"smiles": "O=c1sn(-c2cccc3ccccc23)c(=O)n1Cc1ccccc1", "note": "[Tideglusib]", "surface PD-L1 immunofluorescence intensity": 0.96}
{"smiles": "O=c1cc(-c2ccccc2)oc2cc(O)cc(O)c12", "note": "[Chrysin]", "surface PD-L1 immunofluorescence intensity": 1.08}
{"smiles": "Cc1cc(OCCCS(C)(=O)=O)cc(C)c1-c1cccc(COc2ccc3c(c2)OC[C@H]3CC(=O)O)c1", "surface PD-L1 immunofluorescence intensity": 0.996}
{"smiles": "C=C[C@@]1(C)CC(=O)[C@]2(O)[C@@]3(C)[C@@H](O)CCC(C)(C)[C@@H]3[C@H](O)[C@H](OC(C)=O)[C@@]2(C)O1", "note": "[Forskolin]", "surface PD-L1 immunofluorescence intensity": "1.03 ± 0.034"}
